Laboratory results published in patent US11918822B2, “Compositions and methods for enhancing the biological response to chemical agents and physical stimuli” (The Research Foundation for the State University of New York, priority 2010, dated 2024).

Chains of the proteins cited; added tags and fusions are not shown. Lines headed by an entry give the natural chain unless they say otherwise; changes in a name come on top.
UniProt Q9WV60: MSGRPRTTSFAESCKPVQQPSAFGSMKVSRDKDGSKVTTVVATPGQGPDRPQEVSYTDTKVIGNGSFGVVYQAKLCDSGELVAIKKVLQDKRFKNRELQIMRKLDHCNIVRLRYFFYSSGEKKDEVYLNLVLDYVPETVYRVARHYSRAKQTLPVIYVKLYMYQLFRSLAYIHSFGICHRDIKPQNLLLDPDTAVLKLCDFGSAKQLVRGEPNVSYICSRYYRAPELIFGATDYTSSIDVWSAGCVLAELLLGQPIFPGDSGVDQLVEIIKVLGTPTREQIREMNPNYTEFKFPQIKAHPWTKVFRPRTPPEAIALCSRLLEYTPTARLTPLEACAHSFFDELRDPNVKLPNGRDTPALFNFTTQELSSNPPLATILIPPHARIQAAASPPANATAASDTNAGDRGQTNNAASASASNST

Target: GSK3β (Mus musculus, UniProt Q9WV60)
Assay: Effect of GSK3β inhibition on β-catenin and NFATc1/COX2 activation in mdMSCs (nuclear/cytoplasmic fractionation, Western blot)
Type: cell-based, mice
Method: Key experiments were replicated in a marrow derived mesenchymal stem cell line (mdMSC) generated from C56/BL6 wild-type mice using the procedure of A. Peister, et al. (Blood 103:1662-1668 (2004)). These cells readily undergo differentiation into osteogenic, adipogenic or alternative lineages using standard modifiers.
Nuclear and Cytoplasmic Protein Fractionation: The cells were washed with 1× phosphate-buffered saline, the cell pellet was re-suspended in 0.33 M sucrose, 10 mM Hepes, pH 7.4.1 mM MgCl^2, 0.1% Triton X-100 (pellet versus buffer, 1:5) and placed on ice for 15 minutes. After centrifugation at 3,000 rpm for 5 minutes, the supernatant was collected (cytoplasmic fraction). The pellet was re-suspended in 0.45 M NaCl and 10 mM Hepes, pH 7.4, and placed on ice for 15 minutes. After centrifugation at 12,000 rpm for 5 minutes, the nuclear fraction supernatant was collected.
Western blotting: Details were as in Sen, et al. (Endocrinology 42:6065-6075 (2008)). Antibodies included those directed against active β-catenin (Upstate, Temecula, CA), total […] (BD, Bedford, MA), total-GSK3β Chemicon, Billerica, MA), aP2, PPARγ, adiponectin, COX2, NFATc1 and tubulin (Santa Cruz, CA). Densitometry was determined using NIH ImageJ, 1.37v.
It was next determined whether LV induced inhibition of GSK30 was potent enough to modulate NFATc1/COX2 signaling. In MSC treated with LIV (two 20-minute sessions/day separated by 3 hours). […] This was also true when LIV was delivered to mdMSC: NFATc1 was increased in the nuclear fraction and COX2 rose in the cytoplasm.

O=C1NC(=O)C(c2ccccc2[N+](=O)[O-])=C1Nc1ccc(O)c(Cl)c1 [SB415286]
dose at which β-catenin was activated: 5 µM
dose at which an effect on COX2 was seen (no effect seen below this dose): 10 µM
NFATc1 localisation (preceding the COX2 effect): nuclear accumulation of NFATc1
